Test results from PubChem BioAssay AID977626 (Broad Institute, 2014).
The shares of active, inactive and inconclusive entries below differ from those in the screen. Active and inactive are the calls of the source. How the calls were made is not given here.

Assay: growth inhibition of G2058-humanized E. coli versus wild-type, dose response, G2058 mutant GFP vs wild-type RFP, cherry-pick, OD600 (AID 977626)
Conditions: E. coli WT-RFP vs G2058 humanized-GFP mixed culture, fluorescence; at 50 µM (top of the series)

Row | Compound | activity change, negative = inhibition
1 | Cc1noc(C)c1NC(=O)Nc1ccc2c(c1)C(=O)N([C@H](C)CO)C[C@@H](C)[C@@H](CN(C)C(=O)Nc1ccc3c(c1)OCO3)OCCCC[C@@H](C)O2 | inconclusive: 122
2 | COc1ccc(Cn2c(-c3ccc(Cl)cc3)c[n+]3ccccc23)cc1 | inactive: -3.75
3 | COc1ccc2[nH]c3c(=O)n(CCCCC(=O)NCCC(C)C)c(=S)[nH]c3c2c1 | inconclusive: 125
4 | C[C@@H]1CCCCO[C@H](CN(C)C(=O)CCCN(C)C)[C@H](C)CN([C@@H](C)CO)C(=O)c2cc(NC(=O)Nc3cccc4ccccc34)ccc2O1 | inconclusive: 216
